Measurements taken from PubChem BioAssay AID504834 (National Center for Advancing Translational Sciences (NCATS), 2011).
Out of some 320,000 compounds screened, about 22,000 (6.9%) were called active. Inconclusive results, whose numbers are uncertain, are shown with a selection of clear calls. Calls follow the shape of the dose curve; as a rule, active = well fitted inhibition curve with a large enough effect; inconclusive = small, poorly fitted or top-dose-only effect, or another doubt; inactive = no such curve, though single readings can be large or run the other way. Potencies beside an inconclusive call are fits to weak or partial responses and may not hold up.

Assay: Primary qHTS for delayed death inhibitors of the malarial parasite plastid, 96 hour incubation
Conditions: P. falciparum luciferase reporter growth; series mostly up to 28.7 µM; activity change, negative = inhibition: at the top concentration
Summary of the method: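 Two parasite generations (96 h, 37 C, 5% CO2) of compound exposure in infected erythrocytes (0.05% parasitemia, 2% hematocrit). Luciferase-reporter P. falciparum; decreased luminescence indicates inhibited growth, aimed at apicoplast-acting delayed death.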
% is scaled to controls: 0 for no effect and ±100 for the full control effect; potency is read from the fitted curve at half-maximal effect.

| Structure (SMILES) | activity change, negative = inhibition | Potency |
| --- | --- | --- |
| Cc1ccc(-c2nnn(CC(=O)N(CCO)C(C(=O)NC3CCCC3)c3ccc(F)cc3)n2)o1 (stereo not drawn) | inactive: 29.7% |  |
| COC(=O)c1sccc1NC(=O)COc1ccc(Cl)cc1Cl |  | inconclusive: 18.5 µM [inhibitor, single point] |
| OCCCNc1nc(-c2ccc(Br)cc2)nnc1-c1ccc(Cl)cc1 |  | inconclusive: 18.5 µM [inhibitor, single point] |
| Cc1ccc(CNC(=O)c2ccccc2CCc2ccccc2)cc1 |  | inconclusive: 18.5 µM [inhibitor, single point] |
| COC(=O)[C@@H](NC(=O)Nc1cccc(OC)c1)C(C)C |  | inconclusive: 0.586 µM [inhibitor, full curve, poor fit] |
| Cc1[nH]c(=S)sc1Cc1ccc(F)cc1 | inactive: 8.99% |  |
| CCC(CC)C(=O)Nc1nnc(S(=O)(=O)Nc2ccccc2C)s1 | inactive: 14.8% |  |
| COc1ccc(NC(=O)c2ccc(NC3=NC4CS(=O)(=O)CC4S3)cc2)cc1 (stereo not drawn) |  | active: 10.4 µM |
| Cc1ccc(C(=O)N2CCN(c3ncnc4c(C)csc34)CC2)cc1 | inactive: 8.76% |  |
| CCOC(=O)C1=C(C)Nc2nnnn2C1c1ccc(OC)c(Br)c1 (stereo not drawn) |  | active: 11.7 µM |
| Cc1ccc(S(=O)(=O)N2C(=S)SCC2(C)C)cc1 |  | inconclusive: 13.1 µM [inhibitor, partial curve, poor fit] |
| O=C(NCCc1ccccc1)c1cc(=O)c2ccccc2o1 |  | inconclusive: 2.08 µM [inhibitor, full curve] |
| O=C(Nc1ccc([N+](=O)[O-])cc1)Nc1cnccn1 |  | inconclusive: 18.5 µM [inhibitor, single point] |
| NC(=O)c1ccc(-n2c(CCC(=O)O)ccc2-c2cccs2)cc1 |  | inconclusive: 0.0928 µM [inhibitor, full curve, poor fit] |
| Cc1ccc(C2N(c3ccccn3)C(=O)C3CCCN32)o1 (stereo not drawn) |  | inconclusive: 0.522 µM [inhibitor, full curve, poor fit] |
| COc1ccc(CCNC(=O)CNCCc2ccc(F)cc2)cc1 | inactive: -0.297% |  |
| Cc1ccc2cc(CCNC(=O)CC(C)C)c(=O)[nH]c2c1 |  | inconclusive: 10.4 µM [inhibitor, single point] |
| CCCn1c(C(=O)OC)cc2c1ccn2-c1ccc(F)cc1 |  | inconclusive: 0.0026 µM [inhibitor, full curve, poor fit] |
| CC1=NOC(=O)/C1=C\c1ccc(-c2ccc(Cl)c(C(=O)O)c2)o1 |  | inconclusive: 10.4 µM [inhibitor, single point] |
| COC(c1ccccc1)c1nnc(CCC(=O)N2CCN(Cc3cccs3)CC2)o1 (stereo not drawn) | inactive: 14.3% |  |
| O=C1c2ccccc2C(=O)N1Cc1nc(-c2ccccc2)no1 | inactive: -6.07% |  |
| CCOC(=O)C1(CCOc2ccccc2)CCN(Cc2ccc(COC)o2)CC1 |  | inconclusive: 8.28 µM [inhibitor, partial curve, poor fit] |
| CCOC(=O)[C@H]1[C@H]2COc3ccc(Cl)cc3[C@@H]2N2C(=O)CNC(=O)[C@@]12C |  | inconclusive: 16.5 µM [inhibitor, partial curve, poor fit] |
| COc1ccc(N2C(=O)/C(=C\c3ccco3)N=C2SCC(=O)NC(C)C)cc1Cl |  | inconclusive: 13.1 µM [inhibitor, single point] |
| COc1ccc(/C=C/c2nc(-c3ccccc3O)n[nH]2)cc1 | inactive: 282% |  |

| Structure (SMILES) | activity change, negative = inhibition | Potency |
| --- | --- | --- |
| CCn1nc(CC(=O)Nc2nnc(CC(=O)N3CCCCC3)s2)c2ccccc2c1=O | inactive: 0% |  |
| COc1cccc(N2CC(NS(=O)(=O)c3cccs3)CC2=O)c1 (stereo not drawn) | inactive: 8.83% |  |
| COC(=O)C1=CN(Cc2cccs2)C=C(C(=O)OC)C1c1cccc(OC)c1OC |  | inconclusive: 0.0738 µM [inhibitor, full curve, poor fit] |
| Cc1c(NC(=O)C(C)OC(=O)[C@@H](NC(=O)c2ccccc2)C(C)C)c(=O)n(-c2ccccc2)n1C (stereo partly drawn) |  | inconclusive: 0.0828 µM [inhibitor, full curve, poor fit] |
| Cn1c(=O)[nH]c(=O)c2c1nc(Br)n2CC(O)c1ccccc1 (stereo not drawn) |  | inconclusive: 18.5 µM [inhibitor, single point] |
| COc1ccc(C)cc1S(=O)(=O)Nc1cccc(Cl)c1Cl |  | inconclusive: 13.1 µM [inhibitor, single point] |
| Nc1cc(=O)[nH]c(SCC(=O)Nc2ccccc2Sc2ccccc2)n1 |  | inconclusive: 7.38 µM [inhibitor, partial curve, poor fit] |
| Cc1cccc(COc2ccc(S(=O)(=O)N3CCOCC3)cc2[N+](=O)[O-])c1 |  | inconclusive: 9.28 µM [inhibitor, single point] |
| O=C1CC(c2ccsc2)c2cc3c(cc2N1)OCCO3 (stereo not drawn) |  | active: 11.7 µM |
| O=c1[nH]cc(N=Cc2cc(Cl)cc(Cl)c2O)c(=O)[nH]1 |  | inconclusive: 16.5 µM [inhibitor, single point] |
| CC(OC(=O)c1ccc(-n2cnnn2)cc1)C(=O)Nc1ccccc1[N+](=O)[O-] (stereo not drawn) |  | inconclusive: 18.5 µM [inhibitor, single point] |
| NC(=S)Nc1cccc2cnccc12 | inactive: 8.79% |  |
| Cc1onc(-c2ccccc2)c1CNC(=O)C1COc2ccccc2O1 (stereo not drawn) |  | inconclusive: 10.4 µM [inhibitor, single point] |
| Cc1cc(Oc2ccccc2)nc(N)n1 |  | inconclusive: 10.4 µM [inhibitor, single point] |
| O=C(NCc1cn2ccccc2n1)c1ccc(Br)o1 | inactive: 43.3% |  |
| CC(=O)N1CCOc2ccc(S(=O)(=O)N3CCC(C(=O)Nc4ccccc4F)CC3)cc21 |  | inconclusive: 18.5 µM [inhibitor, single point] |
| CCN(CC)C(=O)CNc1ccc(C(F)(F)F)cc1[N+](=O)[O-] |  | inconclusive: 9.28 µM [inhibitor, partial curve, poor fit] |
| CN1CCN(C(=O)c2cc3ccccc3oc2=O)CC1 |  | inconclusive: 0.0029 µM [inhibitor, full curve, poor fit] |
| C=CCn1c(CNS(=O)(=O)c2ccc(Cl)cc2)n[nH]c1=S | inactive: 0.856% |  |
| CCOc1ccc(NC(=O)N2CCN(Cc3ccc4c(c3)OCO4)CC2)cc1 | inactive: 17.6% |  |
| CCc1cccc(NC(=O)CCNS(=O)(=O)c2ccc3[nH]c(=O)oc3c2)c1 |  | inconclusive: 10.4 µM [inhibitor, single point] |
| Cc1ccnc(NS(=O)(=O)c2ccc(NC(=O)c3ccc([N+](=O)[O-])s3)cc2)n1 |  | active: 11.7 µM |
| CC1CCN(c2nc3ccc(C(=O)NCCCN4CCCCC4)cc3s2)CC1 | inactive: 14.1% |  |
| COc1ccc(OC)c(NC(=O)C(=O)NNC(=O)COc2ccc(Br)cc2C)c1 | inactive: 78.8% |  |
| COC(=O)c1ccc(COC(=O)CNS(=O)(=O)c2ccc(C)cc2)cc1 | inactive: -0.458% |  |

Four records drawn at random from those above:

| Structure (SMILES) | activity change, negative = inhibition | Potency |
| --- | --- | --- |
| Cc1cc(Oc2ccccc2)nc(N)n1 |  | inconclusive: 10.4 µM [inhibitor, single point] |
| Cc1cccc(COc2ccc(S(=O)(=O)N3CCOCC3)cc2[N+](=O)[O-])c1 |  | inconclusive: 9.28 µM [inhibitor, single point] |
| CCN(CC)C(=O)CNc1ccc(C(F)(F)F)cc1[N+](=O)[O-] |  | inconclusive: 9.28 µM [inhibitor, partial curve, poor fit] |
| COc1ccc(C)cc1S(=O)(=O)Nc1cccc(Cl)c1Cl |  | inconclusive: 13.1 µM [inhibitor, single point] |

(further entries)

| Structure (SMILES) | activity change, negative = inhibition | Potency |
| --- | --- | --- |
| CC(C)Cn1cnc2c1c(=O)n(CC(=O)O)c(=O)n2Cc1ccccc1 |  | inconclusive: 13.1 µM [inhibitor, partial curve] |
| Cc1cccc(CNC(=O)c2ccc(NC(=O)C3=CSCCO3)cc2)c1 |  | inconclusive: 0.294 µM [inhibitor, full curve, poor fit] |
| Cc1ccc(C(=O)Nn2c(O)c(C=C3N=c4ccccc4=N3)sc2=S)cc1 |  | inconclusive: 4.65 µM [inhibitor, single point] |
| Cc1cc(C)n2nc(SCC(=O)c3cc(C)n(CC4CCCO4)c3C)nc2n1 (stereo not drawn) |  | inconclusive: 1.04 µM [inhibitor, full curve] |
| O=C(COc1ccccc1)N1CCCC1 |  | inconclusive: 0.117 µM [inhibitor, full curve, poor fit] |
| CCOC(=O)Cc1nc2ccccc2[nH]1 |  | active: 11.7 µM |
| C/C(=N\NC(=O)c1ccco1)c1ccc(NC(=O)c2cccs2)cc1 | inactive: 97.6% |  |
| Cc1ccc(NC(=O)COc2cccnc2[N+](=O)[O-])cc1S(=O)(=O)N1CCCCC1 |  | inconclusive: 13.1 µM [inhibitor, partial curve, poor fit] |
| Cc1nn(C)c(C(=O)Nc2cccc(CN3CCOCC3)c2)c1Br | inactive: -22.1% |  |
| CCOC(=O)c1cc(C(=O)Nc2ccc(S(=O)(=O)Nc3ccc(OC)cc3)cc2)nn1C |  | active: 11.7 µM |
| S=c1[nH]nc(-c2cc(-c3ccco3)[nH]n2)n1-c1ccccc1 | inactive: -4.14% |  |
| O=C(Nc1ccc(C(=O)N2CCOCC2)cc1)c1cc(-c2cccnc2)nc2ccc(Br)cc12 | inactive: 40% |  |
| Cc1ccccc1C(=O)N/N=C/c1ccncc1 | inactive: 36.1% |  |
| CCCCNC(=O)Nc1ccc2c(c1)N(C)C(=O)c1ccccc1S2 |  | active: 3.29 µM |
| COc1ccc2[nH]c3c(=O)n(CCN4CCOCC4)cnc3c2c1 | inactive: 28.4% |  |
| CCOc1ccc(CCNC(=O)c2ccc3c(=O)[nH]c4c(C(=O)NC(C)C)sc(=S)n4c3c2)cc1 |  | active: 3.29 µM |
| O=[N+]([O-])c1cc(S(=O)(=O)NCCN2CCOCC2)ccc1Sc1nnnn1-c1ccccc1 |  | inconclusive: 7.38 µM [inhibitor, partial curve, poor fit] |
| CCCCN1C2CCCC1CC(NC(=O)c1ccccc1Cl)C2 (stereo not drawn) |  | inconclusive: 11.7 µM [inhibitor, partial curve] |
| CSc1nc(C)c2cc(C)oc2n1 |  | active: 0.37 µM |
| CCCCn1ccnc1C(=O)c1cccc(S(=O)(=O)N2c3ccccc3CC2C)c1 (stereo not drawn) |  | inconclusive: 11.7 µM [inhibitor, single point] |
| C=CCOc1ccccc1CN(CCc1ccccc1)C(=O)c1cccc(S(C)(=O)=O)c1 |  | inconclusive: 20.8 µM [inhibitor, single point] |
| Cc1ccc(N2CN(CCC3=CCCCC3)CNC2=S)cc1 |  | inconclusive: 9.28 µM [inhibitor, partial curve] |
| COc1ccc(N=Cc2[nH]c3ccccc3c2O)cc1 | inactive: 160% |  |
